Measured values as given in article PMC11128406.
No constants are given. Whether binding was seen depends on the method and setting. Binding seen in cells or lysates may run through a third protein. Some binding calls cover weakened binding; strength is not graded here.

Target: Pleckstrin homology domain containing protein family member 1 (PLEKHM1) (human (in HUVECs)), Q9Y4G2
Assay: co-IP; HUVECs lysed in precooled RIPA, precleared with Protein A/G agarose, antibody overnight, captured on Protein A agarose at 4 C, washed three times, Western blot
Settings: remark: other sources report otherwise

binding: binds
B1: hVps41, P49754 1-854 (protein)
chain: MAEAEEQETGSLEESTDESEEEESEEEPKLKYERLSNGVTEILQKDAASCMTVHDKFLALGTHYGKVYLLDVQGNITQKFDVSPVKINQISLDESGEHMGVCSEDGKVQVFGLYSGEEFHETFDCPIKIIAVHPHFVRSSCKQFVTGGKKLLLFERSWMNRWKSAVLHEGEGNIRSVKWRGHLIAWANNMGVKIFDIISKQRITNVPRDDISLRPDMYPCSLCWKDNVTLIIGWGTSVKVCSVKERHASEMRDLPSRYVEIVSQFETEFYISGLAPLCDQLVVLSYVKEISEKTEREYCARPRLDIIQPLSETCEEISSDALTVRGFQENECRDYHLEYSEGESLFYIVSPRDVVVAKERDQDDHIDWLLEKKKYEEALMAAEISQKNIKRHKILDIGLAYINHLVERGDYDIAARKCQKILGKNAALWEYEVYKFKEIGQLKAISPYLPRGDPVLKPLIYEMILHEFLESDYEGFATLIREWPGDLYNNSVIVQAVRDHLKKDSQNKTLLKTLAELYTYDKNYGNALEIYLTLRHKDVFQLIHKHNLFSSIKDKIVLLMDFDSEKAVDMLLDNEDKISIKKVVEELEDRPELQHVYLHKLFKRDHHKGQRYHEKQISLYAEYDRPNLLPFLRDSTHCPLEKALEICQQRNFVEETVYLLSRMGNSRSALKMIMEELHDVDKAIEFAKEQDDGELWEDLILYSIDKPPFITGLLNNIGTHVDPILLIHRIKEGMEIPNLRDSLVKILQDYNLQILLREGCKKILVADSLSLLKKMHRTQMKGVLVDEENICESCLSPILPSDAAKPFSVVVFHCRHMFHKECLPMPSMNSAAQFCNICSAKNRGPGSAILEMKK
